Measurements reported in PubChem BioAssay AID1159578 (Peter MacCallum Cancer Centre, 2015).
Test: 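Knock-downs that alter how fast lymphatic endothelial cells migrate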 (primary screen). Cell system: human lymphatic endothelial cells. Reagent: siRNA pool against human genes, 40 nM. Duration: 48 h after transfection. Detection: 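High-content imaging of dye-stained cells in a scratch assay measures filled wound area and nuclei per well; duplicate means given as ratio to mock and robust z-score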. Reading the numbers: migration robust z-score: higher = faster migration into the scratch; migration relative to mock: higher = more scratch area covered than mock; nuclei per well: higher = more cells in the well. Active means: 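Pools averaging fewer than 3300 nuclei are never called; remaining pools count as changed when migration robust z lies outside -2 to 2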. Meaning of the calls: active = migration changed; inactive = no migration change, or too few cells.
Shown is an unselected part of about 18,000 deposited reagents. About 1,030 of them (5.7%) were called active. 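Inactive calls also include pools with fewer than 3300 nuclei, whose migration was not assessed.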 Raw values are not corrected between plates.

no.	gene symbol	migration robust z-score	migration class with cell-count check	migration relative to mock	nuclei per well, duplicate mean	Outcome
1	CENPN (centromere protein N)	-1.01	migration z between -2 and 2; enough cells	0.62	5717	inactive
2	C4orf17 (chromosome 4 open reading frame 17)	0.52	migration z between -2 and 2; enough cells	1.02	5190	inactive
3	OR52W1 (olfactory receptor family 52 subfamily W member 1)	-0.62	migration z between -2 and 2; enough cells	0.73	5248	inactive
4	GAS2 (growth arrest specific 2)	-0.99	migration z between -2 and 2; enough cells	0.62	5174	inactive
5	C12orf71 (chromosome 12 open reading frame 71)	1	migration z between -2 and 2; enough cells	1.15	5698	inactive
6	HTATSF1 (HIV-1 Tat specific factor 1)	-0.68	migration z between -2 and 2; enough cells	0.68	5774	inactive
7	H2AC12 (H2A clustered histone 12)	0.8	migration z between -2 and 2; enough cells	1.09	5919	inactive
8	NRL (neural retina leucine zipper)	-1.38	migration z between -2 and 2; enough cells	0.54	3868	inactive
9	GUCY1A2 (guanylate cyclase 1 soluble subunit alpha 2)	-0.02	migration z between -2 and 2; enough cells	0.8	5768	inactive
10	CRIP3 (cysteine rich protein 3)	1.02	migration z between -2 and 2; enough cells	1.15	6318	inactive
11	LARP4B (La ribonucleoprotein 4B)	0.66	migration z between -2 and 2; enough cells	1.05	5235	inactive
12	SLC44A2	-0.36	under 3300 nuclei; migration not judged	0.74	3264	inactive
13	SOFU1 (sperm-oocyte fusion factor 1)	-0.24	migration z between -2 and 2; enough cells	0.82	5570	inactive
14	LDHA (lactate dehydrogenase A)	-1.01	migration z between -2 and 2; enough cells	0.61	5170	inactive
15	ACKR3 (atypical chemokine receptor 3)	-0.05	migration z between -2 and 2; enough cells	0.8	3642	inactive
16	RUSC1-AS1 (RUSC1 antisense RNA 1)	-0.02	migration z between -2 and 2; enough cells	0.88	5576	inactive
17	TRIM72 (tripartite motif containing 72)	1.04	migration z between -2 and 2; enough cells	1	4964	inactive
18	FAM24B (family with sequence similarity 24 member B)	-0.54	migration z between -2 and 2; enough cells	0.75	5877	inactive
19	RAX2 (retina and anterior neural fold homeobox 2)	0.76	migration z between -2 and 2; enough cells	1.08	4895	inactive
20	CNIH1 (cornichon family member 1)	-0.84	migration z between -2 and 2; enough cells	0.66	5532	inactive
21	TTPA (alpha tocopherol transfer protein)	0.7	migration z between -2 and 2; enough cells	0.94	6340	inactive
22	VPS29 (VPS29 retromer complex component)	0.39	migration z between -2 and 2; enough cells	0.88	6766	inactive
23	ICAM5 (intercellular adhesion molecule 5)	-0.19	migration z between -2 and 2; enough cells	0.84	5666	inactive
